At least one structure is not confirmed: it was looked up by name or label, or the drawing left a doubt.
Columns and labels:
c-Jun = assay: Immunoblotting of hypoxia-induced c-Jun phosphorylation in U87 cells; assay type: cell-based, human; settings: pretreated with SP600125 25 μM for 30 min, hypoxia 6 h
PGK1 S203 = assay: Hypoxia-induced PGK1 S203 phosphorylation in U87 cells (streptavidin pull-down / immunoblotting); assay type: cell-based, human; settings: U87 cells expressing SFB-tagged PGK1, U0126 20 μM or SP600125 25 μM for 30 min before hypoxia 6 h
Description: FIG. 1B. […] FIG. 1C. […] Arrows indicate representative staining of mitochondrial PGK1. Dashed circles indicate mitochondria. FIG. 1D. […] Tubulin was used as a cytosolic protein marker. FIG. 1E. […] Mitochondria fractions and total cell lysates were prepared. FIG. 1F. […] Mitochondria fractions and total cell lysates were prepared. FIG. 1G. […] FIG. 1H. […] FIG. 1I. […] Mitochondrial fractions and total cell lysates were prepared.
FIGS. 11A-J. ERK1/2-mediated PGK1 S203 Phosphorylation Is Required for Mitochondrial Translocation of PGK1. Immunofluorescence, immunoprecipitation, and immunoblotting analyses were performed with the indicated antibodies. FIG. 11A. U87 cells stimulated with or without hypoxia for 6 h were stained with the indicated antibody, MitoTracker, and DAPI. FIG. 11B. […] FIG. 11C. U87 cells were stably transfected with or without vectors expressing HA-MEK1 Q56P with the indicated Flag-ERK2 proteins. Total cell lysates were prepared. FIG. 11D. […] FIG. 11E. Anti-PGK1 pS203 antibody was used to deplete the phosphorylated PGK1 from total cell lysates prepared from U87 cells treated with or without hypoxia for 6 h. The images were quantified by scanning densitometry. […] FIG. 11H. […] FIG. 11I. […] Mitochondria fractions and total cell lysates were prepared. FIG. 11J.
Streptavidin or glutathione agarose beads were incubated with cell lysate (1 mg/ml) or purified protein for 12 h. […]

Oc1c2ccccc2c2c3c(cccc13)N=N2 [SP600125]
hypoxia-induced phosphorylation of c-Jun (c-Jun): blocked
hypoxia-induced PGK1 S203 phosphorylation (PGK1 S203): but not
